## Results of single-concentration screens

From ChEMBL document CHEMBL3988442, “University of Dundee, Small-Polar-MMV Screening Library” (2021).

The filed quantity is “Percent Effect” (%).
The record does not define 0% and 100%; most values in the screen are far below 50% and negative numbers occur (in some assays of this library far below -100).
Compounds were drawn at random from those tested, without regard to their results.

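Whole-cell growth test on Mycobacterium tuberculosis, read after 4 days in a medium based on cholesterol and the lipid DPPC; the read-out is not stated. Concentration: 500 µM. Higher reads as more growth inhibition (inferred: compounds with an IC50 in retests scored well above the rest). Of about 18,000 compounds tested this way, about 900 (5%) reached 50% or more in at least one test.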

SMILES	Percent Effect
Cc1cc(C)c(C(=O)N2CC(CO)C2)o1	-11.01
CCN(CCS(C)(=O)=O)CC(O)c1ccc(C)cc1 (stereo not drawn)	23.74
CC(O)CC(C)(C)CNS(=O)(=O)c1c[nH]cn1 (stereo not drawn)	0.2312
NC(=O)CC1COCCN1 (stereo not drawn)	-9.159
COC(=O)CCCC(=O)N1CCCc2ccccc2C1	35.88
CN(CC(C)(C)O)C(=O)NCC[S+]([O-])c1ccccc1 (stereo not drawn)	-2.979
CC(N)Cc1cccnc1 (stereo not drawn)	-3.117
CNS(=O)(=O)c1ccc2c(c1)CCN2C(C)=O	12.01
CCN1CCCN(C(=O)c2ccccc2COC)CC1	5.861
COCCN1CCC(c2ccn[nH]2)CC1	4.577
COCCNS(=O)(=O)c1ccc2[nH]c(=O)sc2c1	8.27
NCC(=O)Nc1cc(C(F)(F)F)c[nH]c1=O	-0.0901
CN1C(=O)Cc2cc(S(=O)(=O)N3CCCCC3)ccc21	-4.779
NCC(O)C1CCOCC1 (stereo not drawn)	-10.17
Cc1c(O)cccc1C(=O)N[C@@H]1CS(=O)(=O)C[C@H]1O	2.701
NS(=O)(=O)CCOCc1ccccc1	9.151
Cc1cc(CN(C)CCC(=O)Nc2cccnc2)no1	1.503
COC(=O)c1cc(C(F)(F)F)cc(S(N)(=O)=O)c1	10.93
N#CCCn1cnc2ccccc21	-7.886
CN1CCC(C(=O)N2C[C@@H](CO)[C@H](N(C)C)C2)CC1	-8.265
CCC1CN(Cc2ccccc2OCCO)CCO1 (stereo not drawn)	8.252
Cc1cc(CN2CCC(Oc3cccnc3)CC2)on1	33.67
CCNC(=O)C(C)(C)CNC(=O)Nc1cc(C)ccn1	-6.747
NC(=O)Cn1c(C2CC2)nc2ccccc21	-5.85
CC(C)(C)OC(=O)CN(CC1CNCCO1)S(C)(=O)=O (stereo not drawn)	-0.06478
CC(C)(C)OC(=O)NCC(C)(O)c1ccco1 (stereo not drawn)	13.1
CCCNCCNS(=O)(=O)CCc1cccs1	19.43
CCOC(C)C(=O)NCCc1cncn1C (stereo not drawn)	2.73
Cc1ccc(NC(=O)CN(C)C2CC[S+]([O-])CC2)cc1 (stereo not drawn)	21.96
CN(CC(N)=O)C(=O)c1ccc(-c2ccccc2F)s1	-4.121
NCCC1C(=O)Nc2ccccc21 (stereo not drawn)	14.08
O=C(CSc1cnn[nH]1)Nc1ccc(Cl)cn1	87.14
CCN(CC(C)C#N)C(=O)c1ccc(Br)o1 (stereo not drawn)	3.338
CC(=O)N1CCN(CCSc2ccccc2)CC(O)C1 (stereo not drawn)	10.44
N#CCSCC(=O)NCc1ccccc1F	-0.3271
O=C(c1c[nH]c2ncccc12)N1CCCC1	-15.69
CCc1nnc(CNc2cc([C@H]3C[C@@H](N)C3)ncn2)s1	2.123
O=C1CC(c2ccccc2)NCCN1 (stereo not drawn)	-13.62
COc1ccc(N2CCCN(CCC(N)=O)CC2)cc1	44.58
NCCCc1nc(-c2ccncc2)no1	5.764
CC(C)C(C)(C#N)NC(=O)CSc1nncn1C (stereo not drawn)	3.044
Cc1n[nH]c(SCc2nc(-c3ccccn3)no2)n1	12.36
O=C(c1cccc2cn[nH]c12)N1CCCC1CO (stereo not drawn)	-6.323
NCCS(=O)(=O)c1cccs1	-2.416
COc1cccc(SCC(=O)N2CCOC(C)C2)c1 (stereo not drawn)	41.78
Cc1ncsc1C(=O)N(C)c1ncccc1C#N	-4.463
CC(Cc1cccs1)C(=O)N1CC[C@H](O)C1 (stereo partly drawn)	10.28
CCc1nccn1CCC(=O)N1CCOCC(O)C1 (stereo not drawn)	-0.7692

5 of the entries, repeated:

| SMILES | Percent Effect |
|---|---|
| `CN1CCC(C(=O)N2C[C@@H](CO)[C@H](N(C)C)C2)CC1` | -8.265 |
| `CCc1nnc(CNc2cc([C@H]3C[C@@H](N)C3)ncn2)s1` | 2.123 |
| `NCC(=O)Nc1cc(C(F)(F)F)c[nH]c1=O` | -0.0901 |
| `Cc1c(O)cccc1C(=O)N[C@@H]1CS(=O)(=O)C[C@H]1O` | 2.701 |
| `O=C1CC(c2ccccc2)NCCN1` (stereo not drawn) | -13.62 |